According to patent publication US20230357793A1:
Results are given in words; binding and its absence hold for the method and conditions named. Some results given as binding are weak or reduced against the parent protein; the word gives no strength.

Sequences of proteins named here, by UniProt entry; tags and fusion partners are left off. Residues count along the entry.
UniProt Q15116, residues 25-288: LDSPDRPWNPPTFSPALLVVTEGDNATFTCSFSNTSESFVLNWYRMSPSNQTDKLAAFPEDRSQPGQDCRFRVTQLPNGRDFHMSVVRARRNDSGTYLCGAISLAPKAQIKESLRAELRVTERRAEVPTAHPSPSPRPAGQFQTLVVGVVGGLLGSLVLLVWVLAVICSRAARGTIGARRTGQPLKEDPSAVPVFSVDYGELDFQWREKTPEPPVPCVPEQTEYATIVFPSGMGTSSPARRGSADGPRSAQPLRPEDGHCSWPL

Target: PD-1 on Jurkat T cells of the PD-1/PD-L1 blockade bioassay (Promega) (UniProt Q15116)
Assay: titration 5 to 0.02 µg/ml in the PD-1/PD-L1 blockade bioassay (reporter cells)

binding: binds
B1: anti-PD-1 IgG antibody BB9 (antibody, V domains shown)
VH: QVQLVQSGAEVKKPGASVKVSCKASGFRLTTNGISWVRQAPGQGLEWMGWISAGGGPTNYAQKLQGRVTMTTDTSTSTAYMELRSLRSDDTAVYYCAKGLYGTKDAWGQGTLVTVSS
VL: QSVLTQPPSVSEVPGQRVTISCSGGGSNIGSNAVNWYQHFPGKAPKLLIYYNDLLPSGVSDRFSASKSGTSASLAISGLRSEDEADYYCAAWDDNLSAYVFATGTKVTVL
